Results as given in article PMC11536954.

By UniProt entry, the sequences of proteins in these tests, tags left out. Where a name states a change or a piece, a line headed by the entry shows the natural chain unless it says otherwise.
UniProt Q9H237: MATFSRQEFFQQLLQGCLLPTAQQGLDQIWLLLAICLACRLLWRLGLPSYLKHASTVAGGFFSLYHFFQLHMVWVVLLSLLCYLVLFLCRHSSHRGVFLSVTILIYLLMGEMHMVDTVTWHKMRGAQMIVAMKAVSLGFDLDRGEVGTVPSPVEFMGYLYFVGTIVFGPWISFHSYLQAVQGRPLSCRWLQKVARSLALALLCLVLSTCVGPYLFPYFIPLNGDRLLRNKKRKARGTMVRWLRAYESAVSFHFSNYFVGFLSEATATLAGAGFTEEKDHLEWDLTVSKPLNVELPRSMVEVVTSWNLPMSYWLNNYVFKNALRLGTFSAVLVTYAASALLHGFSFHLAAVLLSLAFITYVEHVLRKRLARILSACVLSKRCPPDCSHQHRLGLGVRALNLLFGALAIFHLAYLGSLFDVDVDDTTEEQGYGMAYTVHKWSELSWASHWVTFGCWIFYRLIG

Target: recombinant PORCN protein (Cusabio) (UniProt Q9H237)
Assay: co-IP; in vitro co-IP in PBS, 200 µl, protein A/G beads with IgG or anti-PORCN antibody; 1 µg GST-Ku70 and 1 µg recombinant PORCN; 4 °C, 2 h; both purified

binding: binds
Substance: GST-tagged Ku70 protein (Abnova) (from UniProt P12956 1-609)

Results are given in words; binding and its absence hold for the method and conditions named. In cells and extracts the contact can be indirect. Binding calls can cover weak binding; strength is not graded here.
